Like-named read-outs stand apart in the source and are kept apart here.
Assay: Melamine formaldehyde PMC leakage
Settings: for Comment Code: Melamine formaldehyde PMC leakage: code letter J
[1] = class code letter within Comment Code

| SMILES | Melamine formaldehyde PMC leakage (Comment Code J) [1] | Melamine formaldehyde PMC leakage (Comment Code J) | Comment Code: Melamine formaldehyde PMC leakage |
| --- | --- | --- | --- |
| CC1CCC(C(C)C)C2(C1)OCC(CO)O2 (racemic) [Material 128] | J (Melamine formaldehyde PMC leakage less than or equal to 5%) |  |  |
| CCCCCCCC1CCC(=O)O1 (racemic) [Material 316] | J (Melamine formaldehyde PMC leakage less than or equal to 5%) |  |  |
| CC1=CCCC2(C)OC2CCC(C)=CCC1 (racemic) [Material 568] |  | J (Melamine formaldehyde PMC leakage less than or equal to 5%) |  |
| CC(=O)OC(C)CCC=C(C)CCC=C(C)C (racemic) [Material 881] |  | J (Melamine formaldehyde PMC leakage less than or equal to 5%) |  |
| CCCCC(CC)COC(=O)/C=C\c1ccc(OC)cc1 (stereo not drawn) [Material 1] | J (Melamine formaldehyde PMC leakage less than or equal to 5%) |  |  |
| CC1COC(C)(c2ccc3c(c2)C(C)(C)CCC3(C)C)O1 (stereo not drawn) [Material 2] | J (Melamine formaldehyde PMC leakage less than or equal to 5%) |  | J (Melamine formaldehyde PMC leakage less than or equal to 5%) |
| CCCCCCC#CC(OC)OC [Material 3] | J (Melamine formaldehyde PMC leakage less than or equal to 5%) |  |  |
| C=C1C2CCC(C)(C)C1CCC(OC)C2 (stereo not drawn) [Material 7] | J (Melamine formaldehyde PMC leakage less than or equal to 5%) |  | J (Melamine formaldehyde PMC leakage less than or equal to 5%) |
| COC1CCCCCCCCCCC1 [Material 9] | J (Melamine formaldehyde PMC leakage less than or equal to 5%) |  |  |
| COC1(OC)CCCCCCCCCCC1 [Material 10] | J (Melamine formaldehyde PMC leakage less than or equal to 5%) |  |  |
| CCCCCCCCCC/C=C\C#N [Material 11] | J (Melamine formaldehyde PMC leakage less than or equal to 5%) |  |  |
| CCOC1CCC(C(C)(C)CC)CC1 (stereo not drawn) [Material 12] |  |  | J (Melamine formaldehyde PMC leakage less than or equal to 5%) |
| COc1ccc(C(=O)c2ccccc2)c(O)c1 [Material 13] | J (Melamine formaldehyde PMC leakage less than or equal to 5%) |  |  |
| O=C1CCCCCCCCOCCCCCCO1 [Material 18] | J (Melamine formaldehyde PMC leakage less than or equal to 5%) |  |  |
| CC=CCOCC/C=C\CC [Material 19] |  |  | J (Melamine formaldehyde PMC leakage less than or equal to 5%) |
| COc1ccccc1-c1ccccc1 [Material 22] | J (Melamine formaldehyde PMC leakage less than or equal to 5%) |  |  |
| CC1C(C)(C)C2=C(C3OC(C)(C)OC3CC2)C1(C)C (stereo not drawn) [Material 23] | J (Melamine formaldehyde PMC leakage less than or equal to 5%) |  | J (Melamine formaldehyde PMC leakage less than or equal to 5%) |
| CCCCCCCCOC(=O)c1ccco1 [Material 28] | J (Melamine formaldehyde PMC leakage less than or equal to 5%) |  |  |
| CCCCCCCCOC(C)=O [Material 29] | J (Melamine formaldehyde PMC leakage less than or equal to 5%) |  |  |
| CCCCCCCC1OCC(C)O1 (stereo not drawn) [Material 30] | J (Melamine formaldehyde PMC leakage less than or equal to 5%) |  |  |
| CCCCCCCC(OC)OC [Material 32] | J (Melamine formaldehyde PMC leakage less than or equal to 5%) |  |  |
| C=CC(=C)CCCC(C)(C)OC(C)=O [Material 35] | J (Melamine formaldehyde PMC leakage less than or equal to 5%) |  |  |

| SMILES | Melamine formaldehyde PMC leakage (Comment Code J) [1] | Melamine formaldehyde PMC leakage (Comment Code J) | Comment Code: Melamine formaldehyde PMC leakage |
| --- | --- | --- | --- |
| CCCCCCCCCCCCCC=O [Material 36] | J (Melamine formaldehyde PMC leakage less than or equal to 5%) |  |  |
| C=CCc1cc(OC)c2c(c1)OCO2 [Material 37] | J (Melamine formaldehyde PMC leakage less than or equal to 5%) |  |  |
| CCCCCCCCCCCCCC#N [Material 38] | J (Melamine formaldehyde PMC leakage less than or equal to 5%) |  |  |
| CC(=O)OCCC1=CCC2CC1C2(C)C (stereo not drawn) [Material 47] | J (Melamine formaldehyde PMC leakage less than or equal to 5%) |  |  |
| C=C(C)[C@@H]1CCC2=CC(=O)C[C@@H](C)[C@]2(C)C1 [Material 48] | J (Melamine formaldehyde PMC leakage less than or equal to 5%) |  |  |
| CC1CC=CCCCCCCCC(=O)OCC1 (stereo not drawn) [Material 52] | J (Melamine formaldehyde PMC leakage less than or equal to 5%) |  |  |
| CC1=CCC(C=CC(C)(C)C(C)O)C1(C)C (stereo not drawn) [Material 53] |  |  | J (Melamine formaldehyde PMC leakage less than or equal to 5%) |
| CC=CC(=O)OCCCCCC [Material 55] |  |  | J (Melamine formaldehyde PMC leakage less than or equal to 5%) |
| CC(C)=CCC/C(C)=C\COC=O [Material 59] |  |  | J (Melamine formaldehyde PMC leakage less than or equal to 5%) |
| C=CC(C)(O)CCC=C(C)CCC=C(C)C (stereo not drawn) [Material 63] | J (Melamine formaldehyde PMC leakage less than or equal to 5%) |  |  |
| CCCCCC/C=C/C(=O)OC [Material 67] | J (Melamine formaldehyde PMC leakage less than or equal to 5%) |  |  |
| CC1=CCC(C(C)CC2CCCC2=O)CC1 (stereo not drawn) [Material 69] | J (Melamine formaldehyde PMC leakage less than or equal to 5%) |  |  |
| CC(=O)OCC1CC=C(CCC=C(C)C)CC1 (stereo not drawn) [Material 74] | J (Melamine formaldehyde PMC leakage less than or equal to 5%) |  |  |
| O=C1CCCCCCCCCOCCCCCO1 [Material 76] | J (Melamine formaldehyde PMC leakage less than or equal to 5%) |  |  |
| CC(=O)c1c(C)c([N+](=O)[O-])c(C(C)(C)C)c([N+](=O)[O-])c1C [Material 77] | J (Melamine formaldehyde PMC leakage less than or equal to 5%) |  |  |
| CC1CCCCCCCCCCCCC(=O)C1 (stereo not drawn) [Material 79] | J (Melamine formaldehyde PMC leakage less than or equal to 5%) |  |  |
| CC1/C=C/CCCCCCCCCCC(=O)C1 (stereo not drawn) [Material 80] | J (Melamine formaldehyde PMC leakage less than or equal to 5%) |  |  |
| CCCCCCCCC(C)C=O (stereo not drawn) [Material 92] | J (Melamine formaldehyde PMC leakage less than or equal to 5%) |  |  |
| CCC(=O)OC(C)c1ccccc1 (stereo not drawn) [Material 96] |  |  | J (Melamine formaldehyde PMC leakage less than or equal to 5%) |
| CCCCCCCCCCCCCCCCCC(=O)OC [Material 100] | J (Melamine formaldehyde PMC leakage less than or equal to 5%) |  |  |
| CCCCCCCCCC(C)C(OC)OC (stereo not drawn) [Material 101] | J (Melamine formaldehyde PMC leakage less than or equal to 5%) |  |  |
| CCCCCCCCCC(C)=O [Material 102] | J (Melamine formaldehyde PMC leakage less than or equal to 5%) |  |  |

| SMILES | Melamine formaldehyde PMC leakage (Comment Code J) [1] | Melamine formaldehyde PMC leakage (Comment Code J) | Comment Code: Melamine formaldehyde PMC leakage |
| --- | --- | --- | --- |
| CCCCCCCCCC(C)C=O (stereo not drawn) [Material 103] | J (Melamine formaldehyde PMC leakage less than or equal to 5%) |  |  |
| CCCCCCCCCCCCCC(=O)OC [Material 104] | J (Melamine formaldehyde PMC leakage less than or equal to 5%) |  |  |
| CCCCCC=CCC=CCCCCCCCC(=O)OC [Material 105] | J (Melamine formaldehyde PMC leakage less than or equal to 5%) |  |  |
| CCCCCCC(CO)C(C)=O (stereo not drawn) [Material 106] | J (Melamine formaldehyde PMC leakage less than or equal to 5%) |  |  |
| CCCCCCCCCCCCCCCC(=O)OC [Material 109] | J (Melamine formaldehyde PMC leakage less than or equal to 5%) |  |  |
| COC(=O)C=C(C)CCC=C(C)C [Material 111] |  |  | J (Melamine formaldehyde PMC leakage less than or equal to 5%) |
| CCC=CCC1C(=O)CCC1CC(=O)OC (stereo not drawn) [Material 112] | J (Melamine formaldehyde PMC leakage less than or equal to 5%) |  |  |
| CCCCCC1C(=O)CCC1CC(=O)OC (stereo not drawn) [Material 113] | J (Melamine formaldehyde PMC leakage less than or equal to 5%) |  |  |
| Cc1cccc(Oc2ccccc2)c1 [Material 114] | J (Melamine formaldehyde PMC leakage less than or equal to 5%) |  |  |
| CC(C=O)Cc1cccc(C(C)(C)C)c1 (stereo not drawn) [Material 134] | J (Melamine formaldehyde PMC leakage less than or equal to 5%) |  |  |
| CC(C)=CCCC(C)=CCCc1ccncc1 [Material 135] | J (Melamine formaldehyde PMC leakage less than or equal to 5%) |  |  |
| C=CCCCCCCC/C=C/CC#N [Material 137] | J (Melamine formaldehyde PMC leakage less than or equal to 5%) |  |  |
| CC1OC(C)C2Cc3ccccc3C2O1 (stereo not drawn) [Material 141] | J (Melamine formaldehyde PMC leakage less than or equal to 5%) |  | J (Melamine formaldehyde PMC leakage less than or equal to 5%) |
| CC1=CC2CC(C=O)C1CC2C(C)C (stereo not drawn) [Material 142] | J (Melamine formaldehyde PMC leakage less than or equal to 5%) |  |  |
| CC(C)(O)CCCC1=CCC(C=O)CC1 (stereo not drawn) [Material 143] | J (Melamine formaldehyde PMC leakage less than or equal to 5%) |  |  |
| C=CC(C)(CCC=C(C)C)OC(=O)CCCCCCC (stereo not drawn) [Material 148] | J (Melamine formaldehyde PMC leakage less than or equal to 5%) |  |  |
| C=CC(C)(CCC=C(C)C)OC(=O)C(C)C (stereo not drawn) [Material 149] | J (Melamine formaldehyde PMC leakage less than or equal to 5%) |  |  |
| C=CC(C)(CCC=C(C)C)OC=O (stereo not drawn) [Material 150] |  |  | J (Melamine formaldehyde PMC leakage less than or equal to 5%) |
| C=CC(C)(CCC=C(C)C)OC(=O)CCC (stereo not drawn) [Material 151] |  |  | J (Melamine formaldehyde PMC leakage less than or equal to 5%) |
| C=CC(C)(CCC=C(C)C)OC(=O)c1ccccc1 (stereo not drawn) [Material 152] | J (Melamine formaldehyde PMC leakage less than or equal to 5%) |  |  |
| C=CC(C)(CCC=C(C)C)OC(=O)c1ccccc1N (stereo not drawn) [Material 153] | J (Melamine formaldehyde PMC leakage less than or equal to 5%) |  |  |
